Source: patent US20240115603A1 (Zymeworks, published 2024)

Protein sequences, listed by entry. Tags and fused reporters are not part of them. Lines headed by an entry give the natural chain unless they say otherwise; changes in a name come on top.
UniProt Q99062: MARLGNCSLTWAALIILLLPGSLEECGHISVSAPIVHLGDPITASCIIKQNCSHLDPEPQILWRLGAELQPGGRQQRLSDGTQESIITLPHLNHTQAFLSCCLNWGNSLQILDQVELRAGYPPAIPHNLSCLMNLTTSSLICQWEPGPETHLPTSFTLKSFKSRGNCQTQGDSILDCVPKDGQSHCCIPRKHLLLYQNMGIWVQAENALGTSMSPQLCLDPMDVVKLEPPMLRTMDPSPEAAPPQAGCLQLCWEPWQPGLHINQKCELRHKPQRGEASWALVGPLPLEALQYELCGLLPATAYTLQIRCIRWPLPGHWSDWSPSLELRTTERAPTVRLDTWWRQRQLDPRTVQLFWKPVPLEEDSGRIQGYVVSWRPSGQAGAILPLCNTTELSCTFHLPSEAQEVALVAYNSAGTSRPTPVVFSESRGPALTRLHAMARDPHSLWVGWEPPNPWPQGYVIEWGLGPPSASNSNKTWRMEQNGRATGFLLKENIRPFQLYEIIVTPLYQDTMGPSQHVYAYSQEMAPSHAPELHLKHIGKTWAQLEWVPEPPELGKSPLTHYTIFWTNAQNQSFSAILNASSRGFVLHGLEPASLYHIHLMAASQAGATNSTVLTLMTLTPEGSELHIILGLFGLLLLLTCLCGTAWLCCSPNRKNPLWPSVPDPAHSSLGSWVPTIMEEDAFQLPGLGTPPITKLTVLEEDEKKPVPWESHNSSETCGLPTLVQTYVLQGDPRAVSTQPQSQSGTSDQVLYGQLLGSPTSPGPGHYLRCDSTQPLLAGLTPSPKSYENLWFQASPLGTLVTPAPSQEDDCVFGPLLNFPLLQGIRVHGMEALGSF

Molecular target: T1, WT G-CSFR(Ig-CRH) with N-terminal His tag (human, UniProt Q99062 25-331)
T1 construct: also called WT receptor
T1 chain: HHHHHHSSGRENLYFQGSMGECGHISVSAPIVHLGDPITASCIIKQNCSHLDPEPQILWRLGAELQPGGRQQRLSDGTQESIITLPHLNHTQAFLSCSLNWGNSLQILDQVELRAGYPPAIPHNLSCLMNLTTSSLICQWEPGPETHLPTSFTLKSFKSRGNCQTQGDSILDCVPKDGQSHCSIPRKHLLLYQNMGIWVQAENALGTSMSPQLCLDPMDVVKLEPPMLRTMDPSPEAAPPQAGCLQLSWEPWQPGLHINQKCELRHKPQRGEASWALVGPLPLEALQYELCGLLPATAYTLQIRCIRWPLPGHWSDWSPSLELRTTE
Assay: co-expression in Tni insect cells, pulldown via Twin Strep tag on G-CSF, SDS-PAGE

Binder	binding result
G-CSFE combination design 401 with C-terminal Twin Strep tag (ligand, also called design 401 cytokine) TPLGPASSLPQSFLLKCLKQVRKIQGDGAALQEKLCATYKLCHPERLVLLGHSLGIPWAPLSSCPSQALQLAGCLSQLHSGLFLYQGLLQALEGISPELGPTLDTLQKDVARFATTIWQQMEELGMAPALQPTQGAMPAFASAFQRRAGGVLVASHLQSFLEVSYRVLRHLAQAAAENLYFQGSAWSHPQFEKGGGSGGGSGGSAWSHPQFEK	no binding
G-CSFE combination design 402 with C-terminal Twin Strep tag (ligand, also called design 402 cytokine) TPLGPASSLPQSFLLKCLKQVRKIQGDGAALQEKLCATYKLCHPERLVLLGHSLGIPWAPLSSCPSQALQLAGCLSQLHSGLFLYQGLLQALEGISPELGPTLDTLQLDVAKFAKTIWQQMEELGMAPALQPTQGAMPAFASAFQRRAGGVLVASHLQSFLEVSYRVLRHLAQAAAENLYFQGSAWSHPQFEKGGGSGGGSGGSAWSHPQFEK	no binding

Molecular target: T2, WT G-CSFR(CRH) with N-terminal His tag (human, UniProt Q99062 120-331)
T2 construct: also called G-CSFR(CRH)WT; WT receptor
T2 chain: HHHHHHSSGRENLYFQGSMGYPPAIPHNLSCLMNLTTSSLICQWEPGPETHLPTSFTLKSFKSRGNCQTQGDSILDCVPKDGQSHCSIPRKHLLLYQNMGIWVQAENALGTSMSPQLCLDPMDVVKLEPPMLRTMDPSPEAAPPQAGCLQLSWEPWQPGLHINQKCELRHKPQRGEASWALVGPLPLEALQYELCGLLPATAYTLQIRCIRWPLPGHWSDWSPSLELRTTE
Assay: as above

Binder	binding result
G-CSFE site II design 8 with C-terminal Twin Strep tag (ligand, also called design #8 G-CSFE) TPLGPASSLPQRFLLKCFEQVRKIQGDGAALQEKLCATYKLCHPEELVLLGHSLGIPWAPLSSCPSQALQLAGCLSQLHSGLFLYQGLLQALEGISPELGPTLRTLQKDVARFATTIWQQMEELGMAPALQPTQGAMPAFASAFQRRAGGVLVASHLQSFLEVSYRVLRHLAQAAAENLYFQGSAWSHPQFEKGGGSGGGSGGSAWSHPQFEK	no binding
G-CSFE site II design 9 with C-terminal Twin Strep tag (ligand, also called design #9 G-CSFE) TPLGPASSLPQSFLLKCLEQVRKIQGDGAALQEKLCATYKLCHPEELVLLGHSLGIPWAPLSSCPSQALQLAGCLSQLHSGLFLYQGLLQALEGISPELGPTLRTLQKDVARFATTIWRQMKELGMAPALQPTQGAMPAFASAFQRRAGGVLVASHLQSFLEVSYRVLRHLAQAAAENLYFQGSAWSHPQFEKGGGSGGGSGGSAWSHPQFEK	no binding
G-CSFE site II design 15 with C-terminal Twin Strep tag (ligand, also called design #15 G-CSFE) TPLGPASSLPQSFLLDCLEQVRKIQGDGAALQEKLCATYKLCHPEELVLLGHSLGIPWAPLSSCPSQALQLAGCLSQLHSGLFLYQGLLQALEGISPELGPTLDTLQLDVADFAEDIWEQMEELGMAPALQPTQGAMPAFASAFQRRAGGVLVASHLQSFLEVSYRVLRHLAQAAAENLYFQGSAWSHPQFEKGGGSGGGSGGSAWSHPQFEK	no binding
G-CSFE site II design 34 with C-terminal Twin Strep tag (ligand, also called design #34 G-CSFE) TPLGPASSLPQSFLLKCLEQVRKIQGDGAALQEKLCATYKLCHPEELVLLGHSLGIPWAPLSSCPSQALQLAGCLSQLHSGLFLYQGLLQALEGISPELGPTLDTLQKDVARFATTIWQQMRRLGMAPALQPTQGAMPAFASAFQRRAGGVLVASHLQSFLEVSYRVLRHLAQAAAENLYFQGSAWSHPQFEKGGGSGGGSGGSAWSHPQFEK	no binding
